From paper PMC6983718
Results are given in words; binding and its absence hold for the method and conditions named. Binding calls can cover weak binding; strength is not graded here. Where a sequence is shown, tags or fusion partners need not be part of it.

Molecular target: microtubules (taxol-polymerised bovine tubulin) (bovine)
Experiment: co-sedimentation; MBP or MBP–Mora incubated with 2.25 mg/ml bovine tubulin and 1 mM GTP in general tubulin buffer at 37°C, then 100 µM taxol; spun through 40% glycerol cushion at 100,000 g; supernatant and pellet blotted with anti-MBP and anti-α-Tubulin; control at 4°C without taxol; both purified

binding: binds
B1: MBP–Mora (protein, UniProt Q9VCC0 1-354)
chain: MEQCYNRGCGQLFDPQTNNDESCRHHPGEPFFHDAYKGWSCCNKKSVDFTEFLNIKGCTLAKHSNVKPPEPEKPVKDESDKDEVIEVRAPIREALPRPPIDSPLTVIQPTVAPALKDMVFAVKTPAAQKSSDAIEVGTTCKNNGCTYSFTGNSSDFGECTYHPGVPIFHEGMKFWSCCQKRTSDFSQFMAQKGCTYGEHKWVKENDDKKVVQCRYDWHQTATNVVMAIYAKKYDYSQSVIELNPIRLHVNLVFPEQDNARFDLDLELRGIVNVSNASAHMYGTKVEIKLPKLEPGSWSNLNFPNKKLPVVKKSQVEEKKKQEESDEEFFDLDDIKAETSFRLSEMSMQSPNNLD
